Values of other authors as cited in US10682362B2, “Treatments and diagnostics for cancers” (Wayne State University, priority 2015, dated 2020).
For at least one compound, name, drawing or mass did not settle the structure.

Assays:
proteasome = conditions: cited from earlier work
human PC = conditions: associated with decreased AR protein; cited from earlier work

**Q.** Which proteasome inhibition (proteasome) does the source give for `CC1=C(O)C(=O)C=C2C1=CC=C1[C@@]2(C)CC[C@@]2(C)[C@@H]3C[C@](C)(C(=O)O)CC[C@]3(C)CC[C@]12C` [Celastrol] here?
**A.** Its proteasome inhibition is “potent proteasome inhibitor”.

**Q.** What about the “human PC growth in nude mice” value (human PC) of the same compound?
**A.** Its value is “suppresses human PC growth in nude mice”.
